Source: PubChem BioAssay AID1224904 (Broad Institute, 2016).

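293T-iDUX4 dual-reporter cells; luminescence of the tet-on Italica luciferase control is read after 24 h.
The test concentration is not given here.
Percent change in the Italica control signal; more negative values mean stronger inhibition, which points to nonspecific, tet-on or cytotoxic effects.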

Values are in %.
Common to all entries: measured here: Italica tet-on control reporter.
This is a side read-out of the assay, for part of the compounds, not drawn at random.

O=C(C[C@H]1C[C@@H]2c3cc(NC(=O)c4ccc5c(c4)OCO5)ccc3O[C@@H]2[C@H](CO)O1)NCc1ccc(Oc2ccccc2)cc1 read activity change -32.42%.
O=C(c1cnccn1)N1CC(=O)N2[C@H](C1)[C@@H](c1ccc(C#CCc3ccccc3)cc1)[C@@H]2CO read activity change -4.228%.
O=C(Nc1cc(F)ccc1F)N1CCCCN2[C@H](C1)[C@H](c1ccc(C3=CCCCC3)cc1)[C@@H]2CO read activity change -3.515%.
Cc1ccccc1-c1ccc([C@H]2[C@@H](CO)N3C(=O)CN(C(=O)Nc4cccc(F)c4)C[C@@H]23)cc1 read activity change -14.45%.
CCCNC(=O)Nc1ccc2c(c1)OC[C@H](C)N(CC1CCCC1)C[C@H](C)[C@@H](OC)CN(C)C2=O read activity change 3.687%.
O=C(c1ccc2c(c1)OCO2)N1CC2(C1)[C@H](c1ccccc1)[C@H](CO)N2C(=O)C1CCC1 read activity change -22.73%.
O=C(CC1CC1)N1CC(=O)N2[C@H](CO)[C@@H](c3ccc(C#Cc4cccc(F)c4)cc3)[C@@H]2C1 read activity change -19.37%.
Fc1ccc(-c2ccc(C3[C@@H]4CN(Cc5ccccc5)C[C@H]3N4)cc2)cc1 (some centres undefined) read activity change -91.13%.
N#C[C@H]1[C@@H](c2ccccc2C2=CCCCC2)[C@@H](CO)N1S(=O)(=O)c1ccccc1 read activity change -18.83%.
COc1ccc2c3c([nH]c2c1)[C@@H](CO)N(Cc1nccs1)CC31CCN(C(=O)C2CCCCC2)CC1 read activity change -21.82%.
COc1cccc(-c2ccc3c(c2)[C@@H]2[C@@H](CCN2C(=O)c2ccccc2F)[C@@H](CO)N3C)c1 read activity change -50.25%.
COc1ccc2c3c(n(C)c2c1)[C@@H](CO)N(C(C)=O)CC31CN(Cc2ccccc2OC)C1 read activity change -25.81%.
O=C(Nc1cccc(F)c1)N1CC(=O)N2[C@H](CO)[C@H](c3ccc(C#CC4CC4)cc3)[C@H]2C1 read activity change -18.06%.
O=C(c1ccc2c(c1)OCO2)N1CC(=O)N2[C@@H](CO)[C@H](c3ccc(C#CC4CCCC4)cc3)[C@@H]2C1 read activity change -24.49%.
CC(C)CC#Cc1ccc([C@H]2[C@H]3CN(S(=O)(=O)c4cccc(F)c4)CC(=O)N3[C@H]2CO)cc1 read activity change -6.529%.
Cc1ccccc1S(=O)(=O)N1CCCCN2[C@H](CO)[C@H](c3ccc(-c4cccc(F)c4)cc3)[C@H]2C1 read activity change -4.129%.
CN1c2ccc(-c3cccc(C#N)c3)cc2[C@H]2[C@H](CCN2S(=O)(=O)c2cccc(F)c2)[C@H]1CO read activity change -30.03%.
COc1ccc(NC(=O)N2CCCCN3[C@H](CO)[C@H](c4ccc(-c5ccccc5F)cc4)[C@H]3C2)cc1 read activity change -36.01%.
CS(=O)(=O)N1[C@@H](CO)[C@@H](c2ccccc2)C12CN(Cc1cc(F)ccc1F)C2 read activity change 0.6623%.